PubChem BioAssay AID1259275 | Sanger Institute | 2017
Test: 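Kinome and custom colorectal gene library screened for lethal knock-downs and drug partners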 (primary screen). Cells: COLO320HSR human colorectal cancer cells. Knock-down reagent: siRNA pool against human genes. Challenge: anchor drug added one day after transfection: BYL719 at 1 µM, cetuximab at 5 µg/ml or trametinib at 10 nM; DMSO as vehicle arm. Detection: 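Viability averaged over replicates as a fraction of the non-targeting pool, a robust z-score for knock-down alone, and synergy scores with BYL719 (1 µM), cetuximab (5 µg/ml) or trametinib (10 nM)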. Direction: robust z-score, siRNA alone: higher = more viable cells; strongly negative means essential. Active means: 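a gene is called essential when its robust z-score without drug falls below -3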. Calls: active = essential (siRNA alone); inactive = no change (siRNA alone).
In all, the deposit lists 794 reagents; shown is a random part of them. 13 of all reagents (1.6%) count as active. 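Calls mark knock-downs lethal by themselves, not drug synergy; drugs went in a day after transfection, with DMSO as vehicle.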 Further read-outs or replicates are left out here. No sequences are given here. Not stated in the record: the amount of reagent, the time to read-out.

MAPK10 (mitogen-activated protein kinase 10) gave robust z-score, siRNA alone 0.238; inactive.
NEK10 (NIMA related kinase 10) gave robust z-score, siRNA alone 0.252; inactive.
GATA3 (GATA binding protein 3) showed robust z-score, siRNA alone 0.705; inactive.
Depletion of MAPK12 (mitogen-activated protein kinase 12) gave: robust z-score, siRNA alone 0.726; inactive.
Knock-down of MAP4K4 (mitogen-activated protein kinase kinase kinase kinase 4) came out at: robust z-score, siRNA alone 0.726; inactive.
CDK4 (cyclin dependent kinase 4) showed robust z-score, siRNA alone 0.726; inactive.

Reformatted: entries from further up.
MAPK10 (mitogen-activated protein kinase 10)
- robust z-score, siRNA alone: 0.238
- Call: inactive

NEK10 (NIMA related kinase 10)
- robust z-score, siRNA alone: 0.252
- Call: inactive

GATA3 (GATA binding protein 3)
- robust z-score, siRNA alone: 0.705
- Call: inactive

Further records follow.
Silencing of OBSCN resulted in: robust z-score, siRNA alone 0.726; inactive.
With knock-down of ATP23, the screen gave robust z-score, siRNA alone 0.726; inactive.
Knock-down of CAMK2A (calcium/calmodulin dependent protein kinase II alpha) came out at: robust z-score, siRNA alone -0.0659; inactive.
RPS6KC1 (ribosomal protein S6 kinase C1) scored robust z-score, siRNA alone 0.726; inactive.
Knock-down of TPK1 (thiamin pyrophosphokinase 1) resulted in: robust z-score, siRNA alone -1.26; inactive.
CDC73 (cell division cycle 73) scored robust z-score, siRNA alone -0.697; inactive.
Depletion of MTOR (mechanistic target of rapamycin kinase) came out at: robust z-score, siRNA alone 0.222; inactive.
HIPK1 (homeodomain interacting protein kinase 1) showed robust z-score, siRNA alone -0.521; inactive.
Depletion of ULK2 (unc-51 like autophagy activating kinase 2) resulted in: robust z-score, siRNA alone -1.91; inactive.
With knock-down of MAP3K2 (mitogen-activated protein kinase kinase kinase 2), the record shows robust z-score, siRNA alone 0.726; inactive.
MAP3K3 (mitogen-activated protein kinase kinase kinase 3) gave robust z-score, siRNA alone -4.22; active.
Silencing of CKM (creatine kinase, M-type) gave: robust z-score, siRNA alone -0.814; inactive.
After knock-down of CDKN2B (cyclin dependent kinase inhibitor 2B) the results were robust z-score, siRNA alone 0.0194; inactive.
